Laboratory results taken from PMC7819943, “Rice protein-binding microarrays: a tool to detect cis-acting elements near promoter regions in rice”.
The other results are listed elsewhere or left out.

Protein sequences, listed by entry. Tags and fused reporters are not part of them.
UniProt Q0JBA9, entry or part of it: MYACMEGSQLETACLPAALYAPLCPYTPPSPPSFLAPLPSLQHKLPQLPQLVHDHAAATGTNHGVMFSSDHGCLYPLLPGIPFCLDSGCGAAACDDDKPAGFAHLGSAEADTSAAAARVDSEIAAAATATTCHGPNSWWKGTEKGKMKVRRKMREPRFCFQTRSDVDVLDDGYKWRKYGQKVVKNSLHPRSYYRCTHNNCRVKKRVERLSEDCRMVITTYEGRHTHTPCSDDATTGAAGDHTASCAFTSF

target: OsWRKY34 (Oryza sativa, UniProt Q0JBA9 1-250); test: protein-binding microarray (RPBM); PBS, 2% BSA, 51.3 ng/ul salmon testes DNA, 50 uM zinc acetate, 200 nM TF, 25 C, 1 h; high values mean tight binding; settings: protein: recombinant; tags: N-terminal polyhistidine and DsRed monomer fusion (pET32a); label: CyDye5-dUTP incorporated in the synthesized complementary strand; 3' TTTTT single-stranded linker to array surface; dsDNA, one strand shown
How it was run: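 The binding signal for each feature is its fluorescence intensity in arbitrary units. An Axon 4000B scanner was used to read a custom Agilent array that had been made double-stranded with Cy5-dUTP primer extension, blocked with 2% BSA, incubated at 25 °C for 1 h with 200 nM protein in PBS, 2% BSA, salmon testes DNA and 50 µM zinc acetate, and washed. The protein was an N-terminal polyhistidine–DsRed transcription factor fusion from E. coli BL21-CodonPlus, purified on Ni–NTA.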

| Sequence | binding signal |
| --- | --- |
| GACACGCCAACACACACCATGATCATGCCATGCTTTTCCTCGGAGTCACCTAGTGCAG | 8430 fluorescence intensity (a.u.) |
| CGCCACCGCCACCATCGCCGCCGCCGCCGCGAAGCTCGCCCGGAGTCACCTAGTGCAG | 8720 fluorescence intensity (a.u.) |
| TCGACTCCTCACTCATCCTACTCGGCAACTCACTCTGCTCCGGAGTCACCTAGTGCAG | 9450 fluorescence intensity (a.u.) |
| CCCTGCTCGCATCTCCTTAGCCTAGCCCATCTCTCATCCACGGAGTCACCTAGTGCAG | 10700 fluorescence intensity (a.u.) |
| GGCCTGCACACGGAATCTCGCCTGATATCAGGCCCATCTCCGGAGTCACCTAGTGCAG | 8220 fluorescence intensity (a.u.) |
| CAACCTTGCACCAGTTGGGCTCGTCCATGCTCCATACCCCCGGAGTCACCTAGTGCAG | 8560 fluorescence intensity (a.u.) |
| ACTCGCGCCGTCAAACCACCACCGCCTCCGTCTCCTTCTCCGGAGTCACCTAGTGCAG | 12100 fluorescence intensity (a.u.) |
| CTATGTGTCTCTTGCCGGGTTCTTCTTCTCGGGACTCATGCGGAGTCACCTAGTGCAG | 8230 fluorescence intensity (a.u.) |
| CCACCACCCTTTGGTTTGCTTCTATGCTTCACAGGTGCAGCGGAGTCACCTAGTGCAG | 8220 fluorescence intensity (a.u.) |
| CGATTTGGGTAGTATCGTGGTTTCAGCCGATCTTACTTGACGGAGTCACCTAGTGCAG | 9410 fluorescence intensity (a.u.) |
| TTTTTATTAAAACGTTCGACCACTCGTCTTATTCAAATTTCGGAGTCACCTAGTGCAG | 10100 fluorescence intensity (a.u.) |
| GCAGCCTTGAACCCTTGATTAGCCTTGTCATGTAAACCTACGGAGTCACCTAGTGCAG | 9220 fluorescence intensity (a.u.) |
| AGCTCCACATACCACCATCTATTCATTTTAACACAAAGATCGGAGTCACCTAGTGCAG | 8500 fluorescence intensity (a.u.) |
| TGCATGCTGACCACGGCAACCGGTTGGGTCCCCGTGGGCTCGGAGTCACCTAGTGCAG | 8220 fluorescence intensity (a.u.) |
| TTTATTTTCCAACCCATCTCTCTTCTTTCTGCGCACACGTCGGAGTCACCTAGTGCAG | 11300 fluorescence intensity (a.u.) |
| TGGTACCCTGTGTTGTAATAACCATAGCCTGGCCCTGTTACGGAGTCACCTAGTGCAG | 8860 fluorescence intensity (a.u.) |
| GCATCGAATTTCACCGCCAACACACCCATCATAGTTTACGCGGAGTCACCTAGTGCAG | 9450 fluorescence intensity (a.u.) |
| AACTGTGTTCCTTCCCTTCTTTCCTAACTCACCTATCTCCCGGAGTCACCTAGTGCAG | 8230 fluorescence intensity (a.u.) |
| TATATCGTTGTCTTTTTCTACCATCTATCTTATTTAAAAACGGAGTCACCTAGTGCAG | 9210 fluorescence intensity (a.u.) |
| GATATAAAACTCTTGCATCTACGATAATTCTCCAATCCTACGGAGTCACCTAGTGCAG | 8810 fluorescence intensity (a.u.) |
| TCCATCATGCGTTGCCCGACTGCTGCACATCCGCCACATCCGGAGTCACCTAGTGCAG | 11900 fluorescence intensity (a.u.) |
| CATGTCAGTTCCATGTCCCAGCTTCACCAATGTGCATTTCCGGAGTCACCTAGTGCAG | 9190 fluorescence intensity (a.u.) |
| TCTCTCACTCGCTCTGTACGTACGTTGCCGCCTGCCCATGCGGAGTCACCTAGTGCAG | 9100 fluorescence intensity (a.u.) |
| ACACCCTGACGGTCCAGCATGATCCATCAAATCCATCGAACGGAGTCACCTAGTGCAG | 9970 fluorescence intensity (a.u.) |
| TTGCGTACTCTGGGTGTGTTTTAGTGCACCTGTAATTTCCCGGAGTCACCTAGTGCAG | 8270 fluorescence intensity (a.u.) |
| CTGGTTTCCATGCCCAACGTTTGACCGTTCGTCTTATTTGCGGAGTCACCTAGTGCAG | 10300 fluorescence intensity (a.u.) |
| GCGTTCCTACTTCCTGCCACCTCCGTCCCTCCGTACCAGTCGGAGTCACCTAGTGCAG | 9090 fluorescence intensity (a.u.) |

| Sequence | binding signal |
| --- | --- |
| GGATTCACCACTCATCACCATCTTTAAGGTTTACGTTGAACGGAGTCACCTAGTGCAG | 9400 fluorescence intensity (a.u.) |
| ATCACCACCACCACCGCACGGGCGGGCGGGCGGGCGATCGCGGAGTCACCTAGTGCAG | 12400 fluorescence intensity (a.u.) |
| GCAAATGTACCTATTTAAGCCCCTGCATTCCCGCGTATTCCGGAGTCACCTAGTGCAG | 8130 fluorescence intensity (a.u.) |
| TCTGTTCTCACCTGTACATACATACATACGCACGCACGTACGGAGTCACCTAGTGCAG | 9220 fluorescence intensity (a.u.) |
| AGGCGGAGGAGGGGAGGCGGAAGGGGTTCGCGTCGGCGGCCGGAGTCACCTAGTGCAG | 12200 fluorescence intensity (a.u.) |
| AAGCTCTCATCCGATCATTGTCGCCGTCGCCCCTGAGTTCCGGAGTCACCTAGTGCAG | 8860 fluorescence intensity (a.u.) |
| GGGGTTAGCTATTATCGGACAACTTGGCATATTGAAATTTCGGAGTCACCTAGTGCAG | 11600 fluorescence intensity (a.u.) |
| TTAGCTTAGGGTGGTATGTTTGGATCCATGGGCTAAATCACGGAGTCACCTAGTGCAG | 9240 fluorescence intensity (a.u.) |
| GCAGGGTCTGTTTAGTTTCCAAATAAAAATTTTCCACAATCGGAGTCACCTAGTGCAG | 8390 fluorescence intensity (a.u.) |
| CCTCGCCGTCACGCTGGCGGTCGCCACCTCGTCGCTCTCCCGGAGTCACCTAGTGCAG | 9700 fluorescence intensity (a.u.) |
| TCTCCCTTTCATTTTTATGTATGTTGGAATTATTTTTGTTCGGAGTCACCTAGTGCAG | 8590 fluorescence intensity (a.u.) |
| GCTCTCCTGCCACCGGGCCTCCACATTCGGCGTCGCACTCCGGAGTCACCTAGTGCAG | 14300 fluorescence intensity (a.u.) |
| GCCGCCGTCACCACTAGATCTCCTCGTGTTGAGCTCGCAACGGAGTCACCTAGTGCAG | 10100 fluorescence intensity (a.u.) |
| ACCCTACCTTACCTGCTCCTACTACTGCTCGCCTCGCTTACGGAGTCACCTAGTGCAG | 11700 fluorescence intensity (a.u.) |
| TGTTGTAGTAGATGTTGCTAAATGTTTTTTTATAAACTCACGGAGTCACCTAGTGCAG | 9230 fluorescence intensity (a.u.) |
| TGTGCCACTTTGCGGTTACTATATGCGCTGTTTGTGTCTTCGGAGTCACCTAGTGCAG | 11600 fluorescence intensity (a.u.) |
| GAGTATAGTAAGCCCTTGTTTAGTTCCCAACTTTTTCTTCCGGAGTCACCTAGTGCAG | 8210 fluorescence intensity (a.u.) |
| CCACTTTATCTTTTCCGTTCTATTTTTTAACTAACTCCGTCGGAGTCACCTAGTGCAG | 10300 fluorescence intensity (a.u.) |
| AGGTTTTATTTTCTTTCCACGCCGTTCGCTTCCCGCAATCCGGAGTCACCTAGTGCAG | 13200 fluorescence intensity (a.u.) |
| GGTATCATTTGTTAGAGTGCGCAGTCCGACCCACCAACCGCGGAGTCACCTAGTGCAG | 9750 fluorescence intensity (a.u.) |
| CCATTTCCTCATCGTTCCTCCCTTTTCCCCGATTCTCTACCGGAGTCACCTAGTGCAG | 9540 fluorescence intensity (a.u.) |
| AATGTTGAAATGGGTTGAGTGGTCTCAAGTTGGTCAGGATCGGAGTCACCTAGTGCAG | 8240 fluorescence intensity (a.u.) |
| AATCTCTCAATCTATGCCTATGCCCAACAACACGTTCTAACGGAGTCACCTAGTGCAG | 10300 fluorescence intensity (a.u.) |
| TCCTCCTCGCTCTCGCTCTCTCGATCGATCGAATCGATTCCGGAGTCACCTAGTGCAG | 8580 fluorescence intensity (a.u.) |
| CTTCTACATTTACACCATCTAGTAATCTTGTTAAGCATCTCGGAGTCACCTAGTGCAG | 8440 fluorescence intensity (a.u.) |
| GTTTATTTAACGTGCTCAGTGGTTTCTTTTGTCATTGGAGCGGAGTCACCTAGTGCAG | 8360 fluorescence intensity (a.u.) |
| CCCAGGCCGCCACCCTCGTCCACGCCAGCAACGTCCAGTACGGAGTCACCTAGTGCAG | 9280 fluorescence intensity (a.u.) |

Copied from the list:
binding signal, TCTGTTCTCACCTGTACATACATACATACGCACGCACGTACGGAGTCACCTAGTGCAG reads 9220 fluorescence intensity (a.u.)
binding signal, AATCTCTCAATCTATGCCTATGCCCAACAACACGTTCTAACGGAGTCACCTAGTGCAG reads 10300 fluorescence intensity (a.u.)
binding signal, GCTCTCCTGCCACCGGGCCTCCACATTCGGCGTCGCACTCCGGAGTCACCTAGTGCAG reads 14300 fluorescence intensity (a.u.)
binding signal, GCAAATGTACCTATTTAAGCCCCTGCATTCCCGCGTATTCCGGAGTCACCTAGTGCAG reads 8130 fluorescence intensity (a.u.)
